In PubChem BioAssay AID334 (DTP/NCI, 2004):
The list shows only some results of the screen, not a fair sample: it covers a few groups of compounds. Not every dose and run of a compound is shown. T/C: endpoint of the treated group in % of that of the vehicle group. Some entries give survivors of the animals treated and no T/C: the source holds a T/C of zero for them, seemingly a mark for toxic or unscored doses. Some doses without a T/C left all or most animals alive at the check, yet need not have been tolerated: the source hardly ever lists a survival T/C far under the control, and the zero likely stands for such cases as well. Survivors were counted at the toxicity check, usually on the fifth day, unless a day is given; later deaths do not show. Schedule codes are those of the source, taken here to give the interval after Q, in days (D) or hours (H), and the number of doses after X. Some schedules carry Z or #; the key to these is not given. For survival time, the PubChem record calls one and a half times the control and up active, and a quarter to a half above the control has no call in these data; cut-offs in other NCI protocols can differ. Some T/C values are marked as having no survivor count here; that says nothing about deaths at the dose.

Tested on: CD2F1 mice, intracerebral P388 leukemia, median survival T/C%
Experiment: NCI In Vivo Anticancer Drug Screen. Data for tumor model P388 Leukemia (intracerebral) in CD2F1 (CDF1) mice
Conditions: T/C endpoint: median survival time, vehicle: saline, higher T/C = longer survival
Procedure: The antitumor activity of compounds was measured in mice bearing transplantable tumors. Survival or tumor size were measured and the results are expressed as the measurement made in the treated group (T) divided by the measurement made in the vehicle treated control group (C). The tumor model used in this assay is P388 Leukemia (intracerebral) in CD2F1 (CDF1) mice

Q: Which results are given for `NC1CCCCC1.NP(=O)(O)N(CCCl)CCCl`?
A: T/C (dose: 33.33 mg/kg/injection, schedule: Q30MX003 (ip)): 106 % of control; T/C (dose: 50.0 mg/kg/injection, schedule: Q30MX003 (ip)): 117 % of control; T/C (dose: 92.0 mg/kg/injection, schedule: Q01DX001 (ip)): 107 % of control [survivor count not shown]; survivor count (dose: 100.0 mg/kg/injection, schedule: Q30MX003 (ip)): 9 of 10 on day 6; T/C (dose: 140.0 mg/kg/injection, schedule: Q01DX001 (ip)): 114 % of control [survivor count not shown]; survivor count (dose: 150.0 mg/kg/injection, schedule: Q30MX003 (ip)): 7 of 9 on day 6
